Results on one molecule are retold here after paper PMC10960023.

Chains of the proteins cited; added tags and fusions are not shown.
UniProt P07437: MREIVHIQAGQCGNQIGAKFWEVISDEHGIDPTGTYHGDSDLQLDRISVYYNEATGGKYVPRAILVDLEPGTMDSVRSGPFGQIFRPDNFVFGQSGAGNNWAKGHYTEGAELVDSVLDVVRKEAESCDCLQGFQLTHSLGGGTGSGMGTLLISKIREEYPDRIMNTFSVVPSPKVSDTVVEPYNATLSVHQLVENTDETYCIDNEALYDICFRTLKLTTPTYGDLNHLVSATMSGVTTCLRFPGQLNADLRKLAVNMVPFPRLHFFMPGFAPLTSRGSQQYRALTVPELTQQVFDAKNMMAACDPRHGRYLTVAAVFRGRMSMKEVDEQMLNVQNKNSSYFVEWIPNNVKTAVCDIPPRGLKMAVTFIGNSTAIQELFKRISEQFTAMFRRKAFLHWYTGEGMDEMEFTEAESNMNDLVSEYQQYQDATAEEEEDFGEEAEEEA

The target of this assay is TUBB (human) (UniProt P07437). Briefly: co-IP; HEK293 cells transfected with the indicated constructs, lysed 24 h later in 50 mM Tris-HCl pH 7.5, 200 mM NaCl, 0.5% Triton X-100, 1 mM DTT; lysates incubated with anti-FLAG M2 agarose for 2 h at 4 °C; immunoblotting. A general note: Immunoblotting shows a protein as a band on a membrane.

These are yes or no findings as the source states them, for the method shown. In cells and extracts the contact can be indirect. Some binding calls cover weakened binding; strength is not graded here.

B1: HYLS1 (protein, UniProt Q96M11 1-299)
chain: MEELLPDGQIWANMDPEERMLAAATAFTHICAGQGEGDVRREAQSIQYDPYSKASVAPGKRPALPVQLQYPHVESNVPSETVSEASQRLRKPVMKRKVLRRKPDGEVLVTDESIISESESGTENDQDLWDLRQRLMNVQFQEDKESSFDVSQKFNLPHEYQGISQDQLICSLQREGMGSPAYEQDLIVASRPKSFILPKLDQLSRNRGKTDRVARYFEYKRDWDSIRLPGEDHRKELRWGVREQMLCRAEPQSKPQHIYVPNNYLVPTEKKRSALRWGVRCDLANGVIPRKLPFPLSPS
With B1, the binding result is on record as “binds”.
